# Results from one PubChem assay

The results are deposited in PubChem (AID1053133; Broad Institute, 2014).

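Vaccinia-infected cells with a two-color viral stage reporter; Venus fluorescence read on a plate reader; the cell line is not named here; timing not stated here. The test concentration is not given here. Percent change in Venus reporter signal; lower (more negative) values mean stronger inhibition of that viral stage.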

Values are in %. How 0% and 100% were set is not given here. Common to all entries: measured here: Venus reporter, other viral stage. This is a side read-out of the assay, for part of the compounds, not drawn at random.

structure,activity change (Venus) (%)
O=C(Cc1cccnc1)N1CC(=O)N2[C@H](CO)[C@H](c3ccc(C#CC4CCCC4)cc3)[C@H]2C1,-28.94
O=C(Nc1cccc(F)c1)N1CCCCN2[C@H](CO)[C@@H](c3ccc(C#Cc4cccnc4)cc3)[C@@H]2C1,-27.59
COc1ccc(S(=O)(=O)Nc2ccc3c(c2)C(=O)N([C@H](C)CO)C[C@H](C)[C@H](CN(C)S(=O)(=O)c2ccc(C)cc2)OCCCC[C@H](C)O3)cc1,-33.13
CN1c2ccc(-c3ccc(F)cc3)cc2[C@H]2[C@H](CCN2S(=O)(=O)c2cccc(F)c2)[C@@H]1CO,-58.05
C[C@H]1CN([C@@H](C)CO)C(=O)Cc2cc(NC(=O)Nc3ccc(C(F)(F)F)cc3)ccc2O[C@H]1CN(C)S(=O)(=O)c1ccc(Cl)cc1,-50.05
Cc1ccc(S(=O)(=O)N(C)C[C@@H]2Oc3ncc(C#CCC(C)C)cc3C(=O)N([C@H](C)CO)C[C@H]2C)cc1,-30.9
O=C(C[C@H]1CC[C@@H](NC(=O)Nc2ccccc2F)[C@H](CO)O1)NCc1ccc(-c2ccccc2)cc1,-19.17
COCC#Cc1ccc2c(c1)O[C@@H](CN(C)Cc1ccc3c(c1)OCO3)[C@@H](C)CN([C@@H](C)CO)S2(=O)=O,-38.06
C[C@@H]1CN([C@@H](C)CO)C(=O)c2cc(NC(=O)Cc3ccccc3)ccc2O[C@@H]1CN(C)C(=O)Nc1ccc(C(F)(F)F)cc1,-47.96
CO[C@H]1CN(C)C(=O)c2ccc(NC(=O)Nc3ccc(C(F)(F)F)cc3)cc2OC[C@H](C)NC[C@@H]1C,-53.38
C[C@@H]1CCCCO[C@@H](CN(C)Cc2ccc3c(c2)OCO3)[C@H](C)CN([C@H](C)CO)C(=O)c2cc(NC(=O)c3ccccc3)ccc2O1,-57.02
O=C(C1CCCC1)N1CC[C@@H]2[C@@H](CO)Nc3ccc(C#Cc4ccc(F)cc4)cc3[C@@H]21,-41.01
Cc1noc(C)c1S(=O)(=O)Nc1ccc2c(c1)C(=O)N([C@@H](C)CO)C[C@@H](C)[C@@H](CN(C)Cc1ccccc1)OCCCC[C@H](C)O2,-35.97
C[C@@H]1CCCCO[C@H](CN(C)C(=O)NC2CCCCC2)[C@H](C)CN([C@H](C)CO)C(=O)c2cc(NC(=O)C3CCCCC3)ccc2O1,-51
C[C@@H]1CCCCO[C@@H](CN(C)CC2CCCCC2)[C@@H](C)CN([C@@H](C)CO)C(=O)c2cc(NS(=O)(=O)c3cccs3)ccc2O1,-43.19
COc1ccc2c3c([nH]c2c1)[C@@H](CO)N(C(=O)Nc1ccc(F)cc1)CC31CN(Cc2ccc(F)cc2)C1,-52.04
COc1cccc(-c2ccc3c(c2)O[C@@H](CN(C)C(=O)C2CCCCC2)[C@H](C)CN([C@@H](C)CO)S3(=O)=O)c1,-67.35
C[C@H]1CN([C@@H](C)CO)C(=O)Cc2cc(NS(=O)(=O)c3ccc(Cl)cc3)ccc2O[C@H]1CN(C)Cc1ccc(C(F)(F)F)cc1,-29.91
C[C@H](CO)N1C[C@H](C)[C@@H](CN(C)Cc2ccccc2)Oc2ccc(NC(=O)Nc3ccc(C(F)(F)F)cc3)cc2CC1=O,-41.53
O=C(C1CCC1)N1CCCCN2[C@H](C1)[C@H](c1ccc(C#CC3CCCC3)cc1)[C@@H]2CO,-43.1
Cc1ccc(-c2ccc([C@@H]3[C@@H](CO)N4CCCCN(C(=O)c5ccc(F)cc5)C[C@@H]34)cc2)cc1,-30.08
O=C(CC1CC1)N1CC(=O)N2[C@@H](CO)[C@@H](c3ccc(C#Cc4ccc(F)cc4)cc3)[C@@H]2C1,-47.71
CC(C)NC(=O)N(C)C[C@H]1Oc2cc(C#Cc3ccc(F)cc3)ccc2S(=O)(=O)N([C@@H](C)CO)C[C@@H]1C,-55.58
CNC[C@H]1Oc2cc(C#CCC3CCCC3)ccc2S(=O)(=O)N([C@H](C)CO)C[C@H]1C,-40.48
O=C(Nc1cc(F)ccc1F)N1CC(=O)N2[C@H](CO)[C@@H](c3ccc(C#CC4CCCCC4)cc3)[C@@H]2C1,-61.31
C[C@@H]1CN([C@@H](C)CO)C(=O)c2cc(-c3cccnc3)cnc2O[C@H]1CN(C)Cc1ccc(-c2ccccc2)cc1,-80.96
COc1ccc(S(=O)(=O)Nc2ccc3c(c2)C(=O)N([C@H](C)CO)C[C@@H](C)[C@H](CN(C)S(=O)(=O)c2c(C)noc2C)OCCCC[C@@H](C)O3)cc1,-48.85
COc1ccc(CN(C)C[C@H]2Oc3ccc(NC(=O)Nc4ccc(C(F)(F)F)cc4)cc3C(=O)N([C@@H](C)CO)C[C@@H]2C)cc1,-32.47
COc1cccc(-c2ccc3c(c2)[C@H]2[C@H](CCN2C(=O)C2CCCCC2)[C@@H](CO)N3)c1,-55.55
C[C@@H]1CN([C@@H](C)CO)C(=O)c2cccc(NC(=O)c3nc4ccccc4s3)c2O[C@@H]1CN(C)S(=O)(=O)c1ccc(Cl)cc1,-44.05
COc1ccc(CN(C)C[C@H]2OCCCC[C@H](C)Oc3ccc(NS(=O)(=O)c4ccc(C)cc4)cc3C(=O)N([C@@H](C)CO)C[C@@H]2C)cc1,-42.64

Once more, the final 2:

| structure | activity change (Venus) (%) |
|---|---|
| `C[C@@H]1CN([C@@H](C)CO)C(=O)c2cccc(NC(=O)c3nc4ccccc4s3)c2O[C@@H]1CN(C)S(=O)(=O)c1ccc(Cl)cc1` | -44.05 |
| `COc1ccc(CN(C)C[C@H]2OCCCC[C@H](C)Oc3ccc(NS(=O)(=O)c4ccc(C)cc4)cc3C(=O)N([C@@H](C)CO)C[C@@H]2C)cc1` | -42.64 |